Patent publication US20040001826A1
No constants are given. Whether binding was seen depends on the method and setting. For part of these data: Binding seen in cells or lysates may run through a third protein. Some binding calls cover weakened binding; strength is not graded here.

Amino acid sequences for entries named in this document (tags omitted). A change or cut given only in a name is not applied to a line headed by its entry. Residues count along the entry.
UniProt P30273, residues 19-86: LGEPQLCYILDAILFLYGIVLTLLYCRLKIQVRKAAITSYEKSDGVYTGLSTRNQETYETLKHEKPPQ
UniProt P08121, residues 155-1219: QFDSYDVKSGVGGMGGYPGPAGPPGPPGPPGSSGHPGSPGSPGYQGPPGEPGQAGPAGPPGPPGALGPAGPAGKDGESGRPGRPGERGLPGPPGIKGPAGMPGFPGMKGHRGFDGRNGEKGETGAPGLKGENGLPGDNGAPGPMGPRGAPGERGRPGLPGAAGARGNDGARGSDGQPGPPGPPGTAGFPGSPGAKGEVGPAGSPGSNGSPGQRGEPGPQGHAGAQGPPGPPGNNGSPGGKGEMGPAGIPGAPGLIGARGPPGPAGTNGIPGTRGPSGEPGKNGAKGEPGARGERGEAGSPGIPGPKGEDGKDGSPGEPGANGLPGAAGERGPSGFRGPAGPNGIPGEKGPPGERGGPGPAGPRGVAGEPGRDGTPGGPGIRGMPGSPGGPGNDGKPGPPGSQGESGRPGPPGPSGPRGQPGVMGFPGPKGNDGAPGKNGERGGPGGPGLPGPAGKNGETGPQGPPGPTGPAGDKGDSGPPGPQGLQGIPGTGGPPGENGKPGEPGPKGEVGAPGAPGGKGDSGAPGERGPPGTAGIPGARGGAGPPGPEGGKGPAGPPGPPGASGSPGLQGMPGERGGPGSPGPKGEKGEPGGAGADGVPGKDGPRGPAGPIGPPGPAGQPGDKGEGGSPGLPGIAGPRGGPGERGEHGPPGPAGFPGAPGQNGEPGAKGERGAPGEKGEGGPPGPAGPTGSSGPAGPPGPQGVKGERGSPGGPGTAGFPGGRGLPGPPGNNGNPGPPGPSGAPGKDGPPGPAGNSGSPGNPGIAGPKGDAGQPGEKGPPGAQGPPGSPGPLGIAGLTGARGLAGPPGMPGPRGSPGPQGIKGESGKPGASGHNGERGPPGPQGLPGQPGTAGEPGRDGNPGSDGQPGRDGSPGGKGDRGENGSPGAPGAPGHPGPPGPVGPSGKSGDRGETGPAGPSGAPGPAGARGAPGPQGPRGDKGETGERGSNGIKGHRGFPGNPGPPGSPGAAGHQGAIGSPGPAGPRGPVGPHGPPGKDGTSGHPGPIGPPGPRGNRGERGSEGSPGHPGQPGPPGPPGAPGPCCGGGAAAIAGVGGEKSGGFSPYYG
UniProt Q9HCN6: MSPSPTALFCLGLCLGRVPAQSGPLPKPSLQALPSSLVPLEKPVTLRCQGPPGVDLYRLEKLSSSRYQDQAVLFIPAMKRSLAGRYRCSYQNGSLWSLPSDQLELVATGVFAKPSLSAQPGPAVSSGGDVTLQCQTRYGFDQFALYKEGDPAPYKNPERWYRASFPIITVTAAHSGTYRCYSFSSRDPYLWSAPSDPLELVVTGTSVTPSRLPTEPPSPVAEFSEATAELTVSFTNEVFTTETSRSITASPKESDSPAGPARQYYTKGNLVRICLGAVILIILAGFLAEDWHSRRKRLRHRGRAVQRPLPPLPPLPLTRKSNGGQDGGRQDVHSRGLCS

Assays:
[1] = molecular target: Fc receptor gamma chain (FcRγ) (UniProt P30273); experiment: co-immunoprecipitation with anti-FcRγ antibody from lysates of GPVI-transduced U937 cells and platelets, immunoblot
[2] = molecular target: mouse collagen (type III) in descending aorta sections (mouse) (UniProt P08121); experiment: immunofluorescence on mouse descending aorta sections, anti-human Fc detection
[3] = molecular target: mouse collagen (type III) in descending aorta sections (mouse) (UniProt P08121); experiment: immunofluorescence on mouse aorta sections

Substance | binding [1] | binding [2] | binding [3]
human TANGO 268 (glycoprotein VI, GPVI) (from UniProt Q9HCN6 21-339) (receptor) | binds | – | –
soluble human GPVI-Fc (extracellular domain of GPVI fused to human IgG1 Fc) (from UniProt Q9HCN6 21-267) (Fc fusion) | – | binds | binds
